Laboratory results from publication PMC4605302.
These are yes or no findings as the source states them, for the method shown. Binding seen in cells or lysates may run through a third protein. Here binding means that the protein was enriched with, or labelled near, the bait; the list need not be complete.

T1: Dpb2-TAP (S. cerevisiae) (UniProt P24482)
T1 sequence: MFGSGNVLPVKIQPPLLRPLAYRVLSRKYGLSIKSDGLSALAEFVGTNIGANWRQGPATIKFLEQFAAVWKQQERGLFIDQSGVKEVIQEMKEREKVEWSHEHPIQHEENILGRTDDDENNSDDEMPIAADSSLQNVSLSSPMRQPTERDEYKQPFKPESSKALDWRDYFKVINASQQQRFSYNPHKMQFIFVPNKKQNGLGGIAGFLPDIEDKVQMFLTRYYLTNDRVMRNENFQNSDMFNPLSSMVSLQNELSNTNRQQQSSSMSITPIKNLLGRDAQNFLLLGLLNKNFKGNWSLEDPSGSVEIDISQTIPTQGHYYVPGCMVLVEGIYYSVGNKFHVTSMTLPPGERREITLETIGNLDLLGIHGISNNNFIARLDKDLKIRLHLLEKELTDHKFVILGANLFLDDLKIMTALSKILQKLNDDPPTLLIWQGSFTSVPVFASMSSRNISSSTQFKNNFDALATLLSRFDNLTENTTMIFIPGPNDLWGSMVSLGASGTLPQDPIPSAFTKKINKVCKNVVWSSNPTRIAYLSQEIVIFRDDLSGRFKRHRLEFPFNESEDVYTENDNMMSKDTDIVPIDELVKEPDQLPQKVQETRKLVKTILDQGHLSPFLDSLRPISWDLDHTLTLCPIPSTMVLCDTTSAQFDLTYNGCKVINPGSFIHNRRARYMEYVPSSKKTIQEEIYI


Biological target: T1, Dpb2-TAP (S. cerevisiae)
Experiment: affinity purification with mass spectrometry; TAP-tagged proteins purified from 4 l yeast cultures; gel bands digested with trypsin, nano-LC tandem mass spectrometry

Row | binding | Binder
1 | binds | Ctf8 (protein, UniProt P38877 1-133) MPSVDIDASQWQKLTQSREKQTTVITPLGMMMLEIQGELELPKDFASLARRDSPNEGRFSEQDGETLIRFGSLQIDGERATLFVGKKQRLLGKVTKLDVPMGIMHFNSKDNKVELVDVMKYKVIFKDRPLPIM
2 | binds | Dcc1 (protein, UniProt P25559 1-380) MSINLHSAPEYDPSYKLIQLTPELLDIIQDPVQNHQLRFKSLDKDKSEVVLCSHDKTWVLKQRKHSNTVLLMREFVPEQPITFDETLLFGLSKPYMDVVGFAKTESEFETRETHGELNLNSVPIYNGELDFSDKIMKRSSTKVIGTLEELLENSPCSALEGISKWHKIGGSVKDGVLCILSQDFLFKALHVLLMSAMAESLDLQHLNVEDTHHAVGKDIEDEFNPYTREIIETVLNKFAVQEQEAENNTWRLRIPFIAQWYGIQALRKYVSGISMPIDEFLIKWKSLFPPFFPCDIDIDMLRGYHFKPTDKTVQYIAKSTLPMDPKERFKVLFRLQSQWDLEDIKPLIEELNSRGMKIDSFIMKYARRKRLGKKTVVTSR
